In all, about 320,000 compounds went through this assay and about 2,100 (0.66%) were called active. This list was built around the results that the source calls inconclusive (neither active nor inactive); the mix of calls is not that of the screen. Calls follow the shape of the dose curve; as a rule, active = well fitted inhibition curve with a large enough effect in the signal ratio, with a control signal flat (not every such curve was filed as active); inconclusive = small, poorly fitted or top-dose-only effect, or effect the other way, or a change in a side signal; inactive = flat fitted curve, though single readings scatter; the % refers to the signal ratio. Where the call is inconclusive, the potency comes from a doubtful curve fit.
test: qHTS Assay for Lipid Storage Modulators in Drosophila S3 Cells; settings: BODIPY lipid droplet fluorescence, 18-24 h, cells fed with added oleic acid; lipid storage change, negative = inhibition: at 46.1 µM (top of the series) unless noted
Outline: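 Drosophila S3 cells loaded with oleic acid (400 uM, as added) and compounds at several concentrations; lipid droplets imaged by 488-nm laser-scanning cytometry, 500–530 nm intensity and object ratio to cell channel. Percent activity normalized to 20 uM Triacsin C.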
% is scaled to controls: 0 for no effect and ±100 for the full control effect; potency is read from the fitted curve at half-maximal effect.

SMILES | Potency | lipid storage change, negative = inhibition
CSCCC1NC(=O)N(CC(=O)Nc2ccc(Br)cc2Br)C1=O (stereo not drawn) | inconclusive: 29.1 µM [cytotoxic, single point] | –
Cc1cccc(N(Cc2ccccc2)C(=O)c2ccc(C)c(S(=O)(=O)N3CCOCC3)c2)c1 | – | inconclusive: -33.6%
O=C(C1=NNCC1c1ccccc1)C1OC1c1ccccc1 (stereo not drawn) | – | inconclusive: -36.4%
CCOC(=O)NC(=O)C(/C=N/c1sccc1C(=O)OC)=C(\C)O | inconclusive: 29.1 µM [falling, single point] | –
COc1cc(NC(=O)CN(C)CCOc2ccccc2)c(C)cc1[N+](=O)[O-] | – | inconclusive: 46.2%
O=C(NNC(=S)Nc1cccc(Cl)c1)c1ccccc1OC(F)F | inconclusive: 29.1 µM [falling, partial curve] | –
COC(=O)CN1C(=O)N/C(=C/c2cc(OC)c(OC)cc2C)C1=O | – | inconclusive: -25.2%
CC(C)CCNC(=O)Cn1c2c(c(-c3ccccc3Cl)cc1=O)CCC2 | – | inconclusive: 6.28% [at 9.22 µM]
COc1ccc(C(=O)CCc2ccccc2O)c(OC)c1 | inconclusive: 13 µM [falling, partial curve] | –
COc1ccc(C(CNC(=O)CNC(=O)c2ccccc2Cl)N2CCCC2)cc1 (stereo not drawn) | inconclusive: 11.6 µM [falling, partial curve, poor fit] | –
CCN(CC)S(=O)(=O)c1ccc2c(c1)N(CC(=O)NCc1ccco1)C(=O)CO2 | – | inconclusive: 2.72%
O=S(=O)(Nc1ccc(Cl)cc1)c1ccc(N2CCOCC2)c(NC(=S)NCCN2CCOCC2)c1 | – | inconclusive: 7.59%
Cc1ccc(S(=O)(=O)N2CCC(C(=O)N[C@@H](Cc3ccccc3)C(=O)O)CC2)cc1 | inconclusive: 29.1 µM [cytotoxic, single point] | –
CCN(CC)S(=O)(=O)c1ccc(NCc2ccccc2)nc1 | – | inconclusive: 30%
C=CCNC(=O)c1ccccc1NC(=O)c1ccccc1N(C)S(C)(=O)=O | – | inconclusive: -33.7%
CCCC(=O)Nc1ccc2c(c1)nc1n2CCN(CCOC)C1 | – | inconclusive: 29.1%
Clc1cccc(NC2=NCCC2)c1 | active: 25.9 µM | –
CC(=O)NC1=NN(C(C)=O)C(c2ccccc2)S1 (stereo not drawn) | – | inconclusive: -14.5%
Cc1cccc(NC(=O)CCNC(=O)c2ccccc2)c1 | – | inconclusive: 4.79%
O=C(CCc1nc2ccccc2c(=O)[nH]1)Nc1nc(-c2cccs2)cs1 | – | inconclusive: -7.5%
CC1(C)CC(NC(=O)CCc2nnc(CCCCc3ccccc3)o2)CCO1 (stereo not drawn) | – | inconclusive: 31.5%
Cc1cccc(C)c1NC(=O)CN1C(=O)N(C)Cc2ccccc21 | – | inconclusive: -3.98%
CCC(C)(C)NC(=O)C(c1sccc1C)N(Cc1ccco1)C(=O)c1csnn1 (stereo not drawn) | inconclusive: 1.64 µM [falling, single point] | –
CC12CN3CC(C)(CN(C1)C3c1ccc(F)cc1)C2 (stereo not drawn) | active: 0.731 µM | –
Cc1ccnc(NS(=O)(=O)c2ccc(NC(=O)c3ccc(Cl)cc3[N+](=O)[O-])cc2)n1 | inconclusive: 25.9 µM [activator, partial curve, poor fit] | –
CC1CCN(CCOc2cccc(Br)c2)CC1 | – | inconclusive: -9.35%

SMILES | Potency | lipid storage change, negative = inhibition
Cc1cc(C(=O)N2CCN(C(=O)C3CCCO3)CC2)no1 (stereo not drawn) | – | inconclusive: -8.98%
CCCS(=O)(=O)c1nc(S(=O)(=O)c2ccc(C)cc2)c(NCCCN(C)C)s1 | – | inactive
COc1ccc(OCC(O)CN2CCOCC2)cc1 (stereo not drawn) | – | inconclusive: 54.9%
O=C1C2C3C=CC(C4CC34)C2C(=O)N1/N=C/c1ccc(-c2ccc(Cl)cc2[N+](=O)[O-])o1 (stereo not drawn) | – | inconclusive: 3.32%
O=C(CSc1nnc(Cc2ccccc2)o1)Nc1ccc(Br)cn1 | – | inconclusive: -21.4%
CCOc1ccc(CCNC(=O)c2ccc3c(=O)[nH]c4c(C(=O)NC(C)C)sc(=S)n4c3c2)cc1 | inconclusive: 0.103 µM [falling, full curve, poor fit] | –
O=S1(=O)CCC(N2CCOCC2)C1 (stereo not drawn) | inconclusive: 0.0731 µM [falling, full curve, poor fit] | –
O=C(NCCOCc1ccccc1)C(c1ccccc1)c1ccccc1 | – | inconclusive: -9.89%
Cc1ccc(Sc2ncccc2[N+](=O)[O-])cc1 | – | inactive
C=CCOc1ccccc1CN(CCc1ccccc1)C(=O)c1cccc(S(C)(=O)=O)c1 | active: 4.11 µM | –
COc1cc(C(=O)NCc2nnc(SCC(=O)NCCc3ccccc3)o2)cc(OC)c1OC | inconclusive: 29.1 µM [rising, single point] | –
COc1ccc(C)cc1NC(=O)c1cc2c(=O)n3ccccc3nc2n1C | – | inconclusive: 15.7% [at 9.22 µM]
CCC(C)N(C(=O)COC(=O)COc1c(C)cc(C)cc1C)C1CCS(=O)(=O)C1 (stereo not drawn) | – | inconclusive
Cc1cc(C)nc(N2C(=O)CC(C(=O)O)NC2=NCCc2c[nH]c3ccccc23)n1 (stereo not drawn) | – | inconclusive: -10.8%
COc1ccc(C(=O)N2CCN(C3CCCCC3)CC2)c(OC)c1 | – | inconclusive: 0.63%
CCOC(=O)c1ccc(-c2ccc3c(=O)c4ccccc4n(C)c3c2)cc1F | – | inconclusive: 38.3%
COc1ccc(NCc2ccccc2[N+](=O)[O-])cc1OC | – | inconclusive: 47.6%
O=[N+]([O-])c1ccc(O)c(CN2CCCCCC2)c1 | – | inconclusive: 26.1%
CC(=O)Nc1ccc2nc(NC(=O)CN3CCOCC3)sc2c1 | inconclusive: 6.51 µM [falling, single point] | –
Cc1cccc(N(C)C(=O)c2cc3cc4ccc(C)cc4nc3o2)c1 | – | inconclusive: 24%
O=C(/C=C/c1cnc2ccccc2n1)NC12CC3CC(CC(C3)C1)C2 | – | inconclusive: -67.9%
CC(C)C[C@@H](C(=O)NCC1CCCO1)N1C(=O)N2CCc3c([nH]c4ccccc34)[C@@]2(C)C1=O (stereo partly drawn) | inconclusive: 11.6 µM [falling, partial curve, poor fit] | –
CCCn1c(SCC(=O)Nc2nnc(C)s2)nnc1-c1ccoc1C | – | inactive
Cc1ccc(C)c(Cn2c(=O)c3c(nc4n3CCN4Cc3ccco3)n(C)c2=O)c1 | – | inconclusive: 74.1%
O=C(Nc1cccc(Cl)c1)Nn1cnnc1 | – | inconclusive: 7.51%
CCOc1ccc(CCNC(=O)c2cc(-c3ccccc3)c(N3CCOCC3)s2)cc1OCC | inconclusive: 29.1 µM [falling, single point] | –

Of the compounds above, 3 contain fluorine.
SMILES | Potency | lipid storage change, negative = inhibition
O=C(NNC(=S)Nc1cccc(Cl)c1)c1ccccc1OC(F)F | inconclusive: 29.1 µM [falling, partial curve] | –
CC12CN3CC(C)(CN(C1)C3c1ccc(F)cc1)C2 (stereo not drawn) | active: 0.731 µM | –
CCOC(=O)c1ccc(-c2ccc3c(=O)c4ccccc4n(C)c3c2)cc1F | – | inconclusive: 38.3%

(listing goes on)

SMILES | Potency | lipid storage change, negative = inhibition
Cc1ccc(C(=O)NCCCN2CCOCC2)cc1S(=O)(=O)N1CCCCC1 | – | inconclusive: -9.51%
Nc1cc(=O)[nH]c(SCC(=O)Nc2ccccc2Sc2ccccc2)n1 | – | inconclusive: 4.35%
CC(C)NC(=O)CCCc1cn(C)c2ccccc12 | – | inconclusive: 33.2%
COc1ccc(N2C(=O)/C(=C\c3ccco3)N=C2SCC(=O)NC(C)C)cc1Cl | – | inconclusive: -14.7%
COC(=O)C1=CN(Cc2cccs2)C=C(C(=O)OC)C1c1cccc(OC)c1OC | – | inconclusive: 25.7%
CCN(CC)c1ccc(-c2nn3c(-c4cccnc4)nnc3s2)cc1 | inconclusive: 0.411 µM [falling, full curve] | –
S=c1[nH]nc2c3c4c(sc3ncn12)CCCC4 | – | inconclusive: 9.04%
Cc1cc(=O)n2nc(N3CCC(C(=O)N4CCN(c5ccccc5)CC4)CC3)sc2n1 | – | inactive
O=C(Nc1cccc(OC(=O)c2ccc(Br)o2)c1)c1ccccc1 | – | inactive
C=CCn1c(CNS(=O)(=O)c2ccc(Cl)cc2)n[nH]c1=S | – | inconclusive: 24.6%
CCOc1ccc(NC(=O)N2CCN(Cc3ccc4c(c3)OCO4)CC2)cc1 | inconclusive: 20.6 µM [falling, single point] | –
CC(OC(=O)c1ccc(-n2cnnn2)cc1)C(=O)Nc1ccccc1[N+](=O)[O-] (stereo not drawn) | inconclusive: 0.082 µM [falling, full curve, poor fit] | –
NC(=S)Nc1cccc2cnccc12 | – | inconclusive: 6.72%
CCOc1ccc(Br)cc1-c1noc(-c2cccs2)n1 | inconclusive: 2.59 µM [activator, full curve] | –
O=C(NCc1cn2ccccc2n1)c1ccc(Br)o1 | – | inconclusive: 71.3%
O=C(N/N=C/c1ccc(OCC(=O)N2CCCC2)cc1)C(=O)NC1CC1 | inconclusive: 29.1 µM [activator, single point] | –
Oc1c(Cl)cc(Cl)cc1C=Nc1cc(C(F)(F)F)ccc1N1CCc2ccccc2C1 | – | inconclusive: 1.3%
CCN(CC1CCCN(CCc2cccc(F)c2)C1)C(=O)c1ccc(CSC)o1 (stereo not drawn) | inconclusive: 6.51 µM [activator, single point] | –
Cc1ccc(NC(=O)COc2cccnc2[N+](=O)[O-])cc1S(=O)(=O)N1CCCCC1 | inconclusive: 29.1 µM [falling, single point] | –
CCOC(=O)c1cc(C(=O)Nc2ccc(S(=O)(=O)Nc3ccc(OC)cc3)cc2)nn1C | – | inconclusive: 38.1% [at 0.00295 µM]
Cc1cc(=O)oc(C)c1C(=O)NCCN1CCOCC1 | – | inconclusive: -45.5%
CCOC(=O)Cc1nc2ccccc2[nH]1 | – | inconclusive: 47.7%
CN1CCN(C2CCCCC2NS(=O)(=O)c2ccc(Cl)cc2)CC1 (stereo not drawn) | – | inconclusive: 38.2%
C/C(=N\NC(=O)c1ccco1)c1ccc(NC(=O)c2cccs2)cc1 | – | inconclusive: 22.9%
O=C(Nc1ccc(Oc2cccnc2)cc1)c1cccc([N+](=O)[O-])c1 | – | inconclusive: -31%
COc1ccc(C)cc1Nc1n[n+](C)c(-c2c3ccccc3cc3ccccc23)s1 | – | inconclusive: -39.7%

— PubChem BioAssay AID2685 (National Center for Advancing Translational Sciences (NCATS), 2010)
